From ChEMBL document CHEMBL4196147, “Staurosporine Derivatives Generated by Pathway Engineering in a Heterologous Host and Their Cytotoxic Selectivity” (J Nat Prod, 2018)

Assay: Cytotoxicity against human Huh7.5 cells assessed as decrease in cell viability after 48 hrs by MTT assay
Type: functional, cell-based
Conditions: Huh7.5, 48 h

`CN[C@@H]1C[C@H]2O[C@@](C)([C@@H]1OC)n1c3ccccc3c3c4c(c5c6ccccc6n2c5c31)C(=O)NC4` [STAUROSPORINE] showed an IC50 of 600 nM.
